The experiment in a line: qHTS Assay to Find Inhibitors of Chronic Active B-Cell Receptor Signaling. Particulars: ABC-DLBCL IkBa-CBG/CBR reporter, luminescence ratio (green luciferase fused to IkBa over red control in TMD8 lymphoma cells), 4 h. The gist of the method:
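TMD8 human ABC-DLBCL cells with doxycycline-inducible IκBα–green luciferase fusion and unfused red luciferase, in 0.5% FBS medium; compounds up to 46 uM, 4 h at 37C. Green/red luminescence ratio, filter-overlap corrected, fitted to concentration-response curves.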

The mark [1] stands for this setting: measured here: CBR red luminescence, cell number.
[2] abbreviates: measured here: IkBa-CBG green luminescence.

The structures appear in SMILES notation. Some of the results follow. These are further read-outs of the screen, such as a control signal, another cell line or another target. No call is given for them. Most of these compounds were active or inconclusive in the main read-out, so they are no random draw. The note in brackets gives the kind of curve behind each potency; many fits are weak.

On to `COC(=O)c1ccc(S(=O)(=O)NCc2ccco2)o1`, for which, under setting [1], the AC50 is 1.41 µM [falling, single point].
Take `O=C(COc1ccc2ccccc2c1)NC1=NCCS1`: the AC50 under setting [1] is 29.1 µM [falling, single point].
Take `C(=N\Nc1nc2ccccc2[nH]1)/c1cccs1`: the AC50 under setting [1] is 14.1 µM [falling, partial curve] and the half-maximal activity concentration (AC50) under setting [2] was 12.6 µM [falling, single point].
For `CCOc1ccc(CN2CCNC(=O)C2CC(=O)NCCN2CCOC2=O)cc1` (configuration not stated), under setting [1], the concentration at half-maximal activity (AC50) is 35.5 µM [falling, partial curve, poor fit].
As to `CC(C)CCN(C(=O)c1csnn1)C(C(=O)NC1CCCC1)c1ccc(F)cc1` (configuration not stated), under setting [1], the half-maximal activity concentration (AC50) is 28.2 µM [falling, partial curve, poor fit].
Same read-out and setting: as for `O=C(NCC1CCCO1)C(c1ccncc1)N(Cc1cccs1)C(=O)Cn1nnc(-c2ccc(F)cc2)n1` (configuration not stated), the figure is 6.31 µM [rising, partial curve, poor fit].
In the case of `Cc1cc(NS(=O)(=O)c2ccc(C3CCCCC3)cc2)no1`, the AC50 under setting [1] is 11.2 µM [rising, partial curve, poor fit].
Consider `Cc1cc(NC(=O)CSc2nnc(-c3ccoc3C)o2)no1`, for which the half-maximal activity concentration (AC50) under setting [2] was 35.5 µM [falling, single point].
As for `CCC(=O)NC(c1ccc([N+](=O)[O-])cc1)c1c(O)ccc2ccccc12` (configuration not stated), under setting [1], the AC50 was 13 µM [falling, partial curve, poor fit].
For `COc1cc2cc(C(=O)N/N=C/c3ccc(F)cc3)[nH]c2cc1OC`, the AC50 under setting [1] was 20 µM [falling, single point].
With `COc1ccccc1N(O)C1CC(=O)N(c2ccc(Br)cc2)C1=O` (configuration not stated), under setting [1], the AC50 is 1.16 µM [falling, full curve].
For `O=[N+]([O-])c1cccc(-c2ccc(/C=N/NC(=S)Nc3ccccc3)o2)c1`, under setting [1], the half-maximal activity concentration (AC50) was 2.82 µM [rising, partial curve, poor fit].
On the same count and under the same terms, as for `Cc1cc(=O)oc2cc(OCC(=O)Nc3nnc(C(C)C)s3)ccc12`, the figure is 1.84 µM [rising, partial curve, poor fit]; as for `O=C1CCn2nc(-c3ccc(Cl)cc3)cc2N1`, 6.51 µM [rising, single point]; as for `O=C(Cc1cccs1)Nc1nc(-c2ccc(F)c(F)c2)cs1`, 14.1 µM [falling, single point].
As for `CN(C)c1ccc(/C(=N\O)c2ccccc2)cc1`, under setting [1], the half-maximal activity concentration (AC50) is 29.1 µM [falling, single point].
In the case of `COCCCN=Cc1c(-c2ccccc2)[nH]n(-c2nc3ccccc3s2)c1=O`, under setting [1], the AC50 is 1.26 µM [rising, partial curve].
For the molecule `CC(C)(C)C(=O)Cn1ncc(Cl)c(Cl)c1=O`, the AC50 under setting [1] was 25.1 µM [falling, single point] and the concentration at half-maximal activity (AC50) under setting [2] was 6.31 µM [rising, partial curve, poor fit].
On to `C[C@H]1CN([C@@H](C)CO)C(=O)c2cccc(NC(=O)Nc3ccc(C(F)(F)F)cc3)c2O[C@@H]1CN(C)S(=O)(=O)c1ccccc1`, for which the AC50 under setting [1] was 18.4 µM [falling, single point].
`CC(C)c1cc(NCCOCCO)n2c(nc3ccccc32)c1C#N`: the AC50 under setting [1] is 3.16 µM [falling, single point].
Consider `CCOC(=O)C1CCN(c2c(-c3ccccc3)c3cc(Cl)ccc3[nH]c2=O)CC1`, for which the concentration at half-maximal activity (AC50) under setting [1] was 16.4 µM [falling, partial curve, poor fit].
`COc1ccc2c(Cl)c(-c3nnc4n3CCCCC4)sc2c1`: the half-maximal activity concentration (AC50) under setting [1] was 7.08 µM [falling, partial curve, poor fit].
For `CCOC(=O)C1=C(N)OC2=C(C(=O)CCC2)C1c1ccccc1OCC` (configuration not stated), the AC50 under setting [1] is 17.8 µM [rising, partial curve, poor fit].
With `FC(F)(F)c1cnc(N2CCSCC2)c(Cl)c1`, the AC50 under setting [1] was 0.0891 µM [rising, full curve, poor fit].
The same measure, in the same setting: as for `N#Cc1cc(Sc2ccccn2)c([N+](=O)[O-])cc1C#N`, the figure is 20 µM [falling, single point]; as for `COC(=O)CSc1ccc2nnc(-c3ccc(F)cc3)n2n1`, 35.5 µM [falling, single point].
Take `Cc1ccc([N+](=O)[O-])cc1S(=O)(=O)N1CCCN(C)CC1`: the half-maximal activity concentration (AC50) under setting [1] is 5.01 µM [rising, full curve, poor fit].
For the molecule `O=C(c1ccc(Cl)cc1[N+](=O)[O-])N(Cc1ccccc1)Cc1ccccc1`, under setting [1], the AC50 is 20.6 µM [falling, partial curve, poor fit].
For `Cc1noc(C(=O)NC2CCCCC2)c1Cl`, the AC50 under setting [1] was 28.2 µM [falling, single point].
The same measure, in the same setting: then `COC(=O)c1ccc(CNC(=O)c2ccc(NS(=O)(=O)c3ccc4[nH]c(=O)[nH]c4c3)cc2)cc1`, with 29.1 µM [rising, partial curve, poor fit]; and `Cc1nc2nc[nH]n2c(=O)c1NC(=O)CC12CC3CC(CC(C3)C1)C2`, with 29.1 µM [falling, single point]; and `COc1ccc(S(=O)(=O)N2CCCC2CNC(=O)C(=O)NCc2ccco2)cc1` (configuration not stated), with 6.51 µM [rising, single point].
Regarding `CCN(CC)c1ccc(/C=N/NC(=O)c2ccco2)c(O)c1`, the AC50 under setting [1] is 11.2 µM [falling, partial curve, poor fit].
As to `CCOc1ccc(CCNC(=O)CCC(=O)N2CCOc3ccccc32)cc1OCC`, under setting [1], the concentration at half-maximal activity (AC50) is 5.62 µM [falling, full curve].
Consider `COc1ccc2c(c1)CC/C(=C\c1ccc(OC)c(Cn3nc(C)cc3C)c1)C2=O`, for which the concentration at half-maximal activity (AC50) under setting [1] is 29.1 µM [falling, single point].
As for `Cc1cccc(C(=O)n2c(=S)nc3ccccn32)c1`, under setting [1], the AC50 is 3.26 µM [falling, full curve].
Same read-out and setting: then `CCOC(=O)C1CCN(C(=O)c2cc(COc3ccc(F)cc3F)on2)CC1`, with 28.2 µM [falling, partial curve, poor fit].
Consider `Nc1ccccc1SC/C=C/CSc1ccccc1N`, for which, under setting [1], the AC50 is 0.501 µM [rising, full curve, poor fit].
For `Cc1cccc(-n2ncc3c(NCCCn4ccnc4)ncnc32)c1`, the AC50 under setting [2] was 3.26 µM [rising, full curve, poor fit].
In the case of `COc1ccc(O)c(/C=N/Nc2nc3ccccc3[nH]2)c1`, under setting [1], the concentration at half-maximal activity (AC50) is 35.5 µM [falling, single point].
As to `COc1ccccc1NC(CC(=O)c1ccccc1)C(=O)OCC(=O)c1ccc(C)c(C)c1` (configuration not stated), the concentration at half-maximal activity (AC50) under setting [1] was 9.2 µM [falling, partial curve].
As for `O=C(Nc1ccc(N2CCN(C(=O)c3ccccc3)CC2)c(Cl)c1)c1ccco1`, the half-maximal activity concentration (AC50) under setting [1] is 25.9 µM [falling, single point].
On to `COc1ccc(Cn2c(O)c(/C=N/NC(=O)c3cccnc3)c3ccccc3c2=O)cc1`, for which the concentration at half-maximal activity (AC50) under setting [1] is 8.91 µM [falling, partial curve].
As for `Nc1nc2ccccc2n1/N=C/c1ccc(-c2ccccc2)o1`, the AC50 under setting [1] is 31.6 µM [falling, single point].
Take `COc1ccc(C)cc1NC(=O)NCc1ccc(F)cc1`: the AC50 under setting [1] was 15.8 µM [rising, single point].
`CC(C)C[C@@H](C)C(=O)N(Cc1ccccc1)c1ccccc1`: under setting [1], the concentration at half-maximal activity (AC50) is 0.0651 µM [rising, full curve, poor fit].
With `O=C(O)c1ccc2c(=O)[nH]c(CCl)nc2c1`, under setting [1], the AC50 is 17.8 µM [falling, single point].
As for `CCCCn1nc(NC(=O)c2cccs2)c2cc3cc(OC)ccc3nc21`, the AC50 under setting [1] is 29.1 µM [falling, single point].
Take `COc1ccccc1CC(=O)Nc1cccc(C(=O)Nc2nccs2)c1`: the AC50 under setting [1] was 6.31 µM [falling, partial curve].
As for `Cn1c(N)c(C(=O)NCc2ccccc2)sc1=S`, under setting [1], the concentration at half-maximal activity (AC50) was 7.31 µM [rising, partial curve, poor fit].
For the molecule `Cc1ccc(S(=O)(=O)N2CCN(Cc3nc4ccccc4[nH]3)CC2)cc1C`, the AC50 under setting [1] was 0.411 µM [rising, full curve, poor fit].
On to `O=C1C([N+](=O)[O-])=C(O)c2cccc3cccc1c23`, for which the AC50 under setting [1] was 20 µM [falling, single point].
For `COc1ccc(/C=C/CN2CCCC(CO)(Cc3cccc(Cl)c3)C2)cc1` (configuration not stated), the half-maximal activity concentration (AC50) under setting [1] was 0.112 µM [rising, full curve, poor fit].
On the same count and under the same terms, then `N/C(=N\OC(=O)/C=C/c1ccccc1Cl)c1cccnc1`, with 0.447 µM [rising, full curve, poor fit]; and `COc1ccc(-c2cc(C(F)(F)F)n3nc(C(=O)N4CCCCC4)cc3n2)cc1OC`, with 5.62 µM [rising, single point].
Consider `O=C1Nc2c(c(=O)[nH]c(=O)n2-c2ccccc2)C(C(F)(F)F)(C(F)(F)F)N1`, for which the concentration at half-maximal activity (AC50) under setting [1] was 32.6 µM [falling, single point].
Take `Cc1cccnc1NC(=O)Nc1cccs1`: under setting [1], the AC50 was 0.82 µM [rising, full curve, poor fit].
As to `COc1ccc(CCc2cc(OC)cc(=O)o2)cc1`, the AC50 under setting [1] was 35.5 µM [rising, single point].
As for `O=C(N/N=C1\CCCc2oc(C(=O)O)cc21)c1ccccc1`, the AC50 under setting [1] is 7.08 µM [falling, partial curve, poor fit].
`O=C(O)c1cc(-c2ccc3c(c2)OCO3)nc2ccccc12`: under setting [1], the AC50 is 2 µM [falling, full curve].
Regarding `O=S(=O)(c1ccc(OCC2CO2)cc1)c1ccc(OCC2CO2)cc1` (configuration not stated), the concentration at half-maximal activity (AC50) under setting [2] was 12.6 µM [falling, partial curve, poor fit].
`Nc1nc(Nc2ccccc2)nc2ccccc12`: the AC50 under setting [1] was 17.8 µM [falling, single point].
Same read-out and setting: then `O=C(c1ccccc1F)N1CCN(Cc2ccccc2F)CC1`, with 0.116 µM [falling, full curve, poor fit]; and `Cc1ccc2cc(CN(CCN3CCOCC3)C(=O)NCc3ccccc3)c(=O)[nH]c2c1C`, with 2.82 µM [rising, full curve, poor fit].
In the case of `O=c1c2ccccc2nnn1Cc1nnc(-c2ccccc2Br)o1`, the AC50 under setting [1] was 11.2 µM [falling, partial curve].
